Article PMC10267427
No constants are given. Whether binding was seen depends on the method and setting. Binding seen in cells or lysates may run through a third protein. Some results given as binding are weak or reduced against the parent protein; the word gives no strength.

Sequences of proteins named here, by UniProt entry; tags and fusion partners are left off.
UniProt P31749: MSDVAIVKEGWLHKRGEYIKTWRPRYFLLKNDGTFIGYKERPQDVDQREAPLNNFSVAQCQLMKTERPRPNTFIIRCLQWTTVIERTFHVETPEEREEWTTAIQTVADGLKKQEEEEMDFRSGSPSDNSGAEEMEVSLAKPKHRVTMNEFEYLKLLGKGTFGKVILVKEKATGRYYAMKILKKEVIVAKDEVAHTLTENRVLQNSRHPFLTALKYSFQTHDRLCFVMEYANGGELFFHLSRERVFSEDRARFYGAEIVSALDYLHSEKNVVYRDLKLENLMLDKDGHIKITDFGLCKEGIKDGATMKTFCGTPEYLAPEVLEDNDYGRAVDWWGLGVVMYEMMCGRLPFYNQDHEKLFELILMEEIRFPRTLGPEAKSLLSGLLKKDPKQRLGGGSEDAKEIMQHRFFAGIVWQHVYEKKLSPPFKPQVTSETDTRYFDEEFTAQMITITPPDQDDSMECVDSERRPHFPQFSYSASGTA

Target: phosphorylated Akt (p-Akt) (human (endogenous in HBF)) (UniProt P31749)
Experiment: co-IP; lysates of HBFs infected with HSALR1-overexpression or control lentivirus; magnetic beads with anti-p-AKT antibody (IgG as control), overnight at 4°C; Western blot of the eluate

- binding: binds
B1: CDC37 (protein, UniProt Q16543 1-378)
chain: MVDYSVWDHIEVSDDEDETHPNIDTASLFRWRHQARVERMEQFQKEKEELDRGCRECKRKVAECQRKLKELEVAEGGKAELERLQAEAQQLRKEERSWEQKLEEMRKKEKSMPWNVDTLSKDGFSKSMVNTKPEKTEEDSEEVREQKHKTFVEKYEKQIKHFGMLRRWDDSQKYLSDNVHLVCEETANYLVIWCIDLEVEEKCALMEQVAHQTIVMQFILELAKSLKVDPRACFRQFFTKIKTADRQYMEGFNDELEAFKERVRGRAKLRIEKAMKEYEEEERKKRLGPGGLDPVEVYESLPEELQKCFDVKDVQMLQDAISKMDPTDAKYHMQRCIDSGLWVPNSKASEAKEGEEAGPGDPLLEAVPKTGDEKDVSV
